According to patent US6555652B1 (Kyogo Itoh, priority 1997, dated 2003):
No end group written: not given here.

Legend:
Conditions in all cases: whole synthesis, scale 100 mg resin
[1] = general procedure: Fmoc solid-phase peptide synthesis; Fmoc-Leu-Alko Resin (0.54 mmol/g)
[2] = general procedure: Fmoc solid-phase peptide synthesis; Fmoc-Trp(Boc)-Alko Resin (0.65 mmol/g)
[3] = general procedure: Fmoc solid-phase peptide synthesis; Fmoc-Ile-Alko Resin (0.62 mmol/g)

Sequence EYRGFTQDL has an isolated mass [1] of 52.5 mg.
EYRGFTQDW gave an isolated mass [2] of 14.0 mg.
For EYRGFTQDI, the isolated mass [3] was 47.8 mg.
